Measured values published in paper PMC11844280.
These are yes or no findings as the source states them, for the method shown. In cells and extracts the contact can be indirect. Some entries that bind do so weakly or less than the wild type.

By UniProt entry, the sequences of proteins in these tests, tags left out.
UniProt P18669: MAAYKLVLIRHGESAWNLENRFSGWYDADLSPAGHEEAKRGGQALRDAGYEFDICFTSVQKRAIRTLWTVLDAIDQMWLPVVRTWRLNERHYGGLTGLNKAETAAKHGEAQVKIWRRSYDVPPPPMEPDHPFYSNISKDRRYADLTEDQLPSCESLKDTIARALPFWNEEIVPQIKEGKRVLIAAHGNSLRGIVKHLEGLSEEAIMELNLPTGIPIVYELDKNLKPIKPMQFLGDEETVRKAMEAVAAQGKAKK
UniProt Q15386: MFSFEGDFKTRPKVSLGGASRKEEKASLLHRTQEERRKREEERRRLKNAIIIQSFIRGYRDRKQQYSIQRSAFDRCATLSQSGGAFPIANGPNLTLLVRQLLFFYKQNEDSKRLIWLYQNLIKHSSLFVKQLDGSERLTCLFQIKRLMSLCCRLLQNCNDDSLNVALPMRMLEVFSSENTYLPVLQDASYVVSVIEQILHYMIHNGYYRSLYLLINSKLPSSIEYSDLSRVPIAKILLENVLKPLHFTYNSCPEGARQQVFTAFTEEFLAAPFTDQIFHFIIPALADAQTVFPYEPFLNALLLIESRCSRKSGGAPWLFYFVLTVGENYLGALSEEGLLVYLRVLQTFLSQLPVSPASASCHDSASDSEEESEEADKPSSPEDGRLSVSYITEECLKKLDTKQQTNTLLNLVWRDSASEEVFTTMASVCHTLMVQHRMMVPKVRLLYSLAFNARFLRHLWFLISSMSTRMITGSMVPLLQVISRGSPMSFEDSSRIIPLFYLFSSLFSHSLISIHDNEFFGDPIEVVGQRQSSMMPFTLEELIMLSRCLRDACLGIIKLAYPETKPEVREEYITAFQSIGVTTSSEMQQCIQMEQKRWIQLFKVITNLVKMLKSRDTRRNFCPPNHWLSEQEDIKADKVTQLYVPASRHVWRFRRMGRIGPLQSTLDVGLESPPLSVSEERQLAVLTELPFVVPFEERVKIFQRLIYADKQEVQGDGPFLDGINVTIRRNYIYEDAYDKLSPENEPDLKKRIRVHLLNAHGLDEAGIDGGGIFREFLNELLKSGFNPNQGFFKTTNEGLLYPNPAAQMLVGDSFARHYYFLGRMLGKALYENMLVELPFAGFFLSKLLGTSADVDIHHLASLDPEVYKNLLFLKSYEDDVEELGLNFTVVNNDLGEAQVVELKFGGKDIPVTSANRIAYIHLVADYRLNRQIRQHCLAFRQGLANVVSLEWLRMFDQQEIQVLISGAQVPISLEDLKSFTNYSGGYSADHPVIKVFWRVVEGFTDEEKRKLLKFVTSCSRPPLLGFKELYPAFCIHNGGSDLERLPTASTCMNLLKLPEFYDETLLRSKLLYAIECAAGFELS

Biological target: phosphoglycerate mutase 1 (PGAM1), endogenous (human (endogenous in H2030)) (UniProt P18669)
Assay: co-IP; endogenous proteins; cells lysed in IP lysis buffer with protease and phosphatase inhibitors, lysates pre-cleared with protein A/G magnetic beads, primary antibodies or IgG controls overnight at 4°C, captured on protein A/G beads, Western blotting

binding: binds
Substance: E3 ubiquitin ligase UBE3C, endogenous (from UniProt Q15386 1-1083) (enzyme)
